Drawing on patent publication US20130218474A1, “Benchmarks for Normal Cell Identification” (priority 2012, published 2013), this text covers IC50 for one compound.

This assay has as its system GM-CSF_pSTAT5. The assay can be described thus: cells. The conditions noted are these: read-out: GM-CSF_pSTAT5 inhibition IC50.

By IC50 is commonly meant the midpoint of a concentration-inhibition curve. Turning to `C[C@@H]1CCN(C(=O)CC#N)C[C@@H]1N(C)c1ncnc2[nH]ccc12` [CP690550], the half-inhibitory concentration (IC50) is approximately 300 nM.
